The subject of experiment [1] is MCF7 breast cancer cell line. The experiment can be described thus: Sulforhodamine-B. It counts as cell-based. Conditions: Homo sapiens, MCF7, read-out: IC50 anticancer evaluation MCF.
For experiment [2], the system named is HOP62 lung cancer cell line. Description: Sulforhodamine-B. It counts as cell-based. Conditions: Homo sapiens, HOP-62, read-out: IC50 anticancer evaluation Hop62.
Experiment [3] relates to Colo205 colon cancer cell line. The experiment can be described thus: Sulforhodamine-B. It counts as cell-based. Particulars: Homo sapiens, COLO 205, read-out: IC50 anticancer evaluation Colo205.
The test system of experiment [4] is HT29 colon cancer cell line. Description: Sulforhodamine-B. The class given is cell-based. Conditions: Homo sapiens, HT-29, read-out: IC50 anticancer evaluation HT29.
The test system of experiment [5] is MIA-PA-CA-2 pancreatic cancer cell line. The experiment can be described thus: Sulforhodamine-B. Particulars: Homo sapiens, MIA PaCa-2, read-out: IC50 anticancer evaluation Miapaca-2. It counts as cell-based.
Experiment [6] has as its target farnesyl protein transferase (FPT) (Homo sapiens, UniProt P49354+P49356). Description: FPT inhibition assay. The class given is biochemical.

What is called IC50 is the point on the concentration scale where inhibition reaches its midpoint.

For `Clc1ccc2c(c1)CCc1cccnc1C2=C1CCNCC1` [Desloratidine, Desloratadine], the IC50 in experiment [1] is 25 µM; in experiment [2] it was 50 µM; in experiment [3], 85 µM; in experiment [4], 20 µM; in experiment [5], 25 µM; in experiment [6], 60 µM.

The record behind these values is paper PMC3116320 (Indian Journal of Pharmaceutical Sciences, 2010).
